Test results as given in PMC11499603.
No constants are given. Whether binding was seen depends on the method and setting. In cells and extracts the contact can be indirect. Here binding means that the protein was enriched with, or labelled near, the bait; the list need not be complete.

B1: kinesin family member 3C (protein, UniProt O14782 1-793)
chain: MASKTKASEALKVVARCRPLSRKEEAAGHEQILTMDVKLGQVTLRNPRAAPGELPKTFTFDAVYDASSKQADLYDETVRPLIDSVLQGFNGTVFAYGQTGTGKTYTMQGTWVEPELRGVIPNAFEHIFTHISRSQNQQYLVRASYLEIYQEEIRDLLSKEPGKRLELKENPETGVYIKDLSSFVTKNVKEIEHVMNLGNQTRAVGSTHMNEVSSRSHAIFIITVECSERGSDGQDHIRVGKLNLVDLAGSERQNKAGPNTAGGAATPSSGGGGGGGGSGGGAGGERPKEASKINLSLSALGNVIAALAGNRSTHIPYRDSKLTRLLQDSLGGNAKTIMVATLGPASHSYDESLSTLRFANRAKNIKNKPRVNEDPKDTLLREFQEEIARLKAQLEKRGMLGKRPRRKSSRRKKAVSAPPGYPEGPVIEAWVAEEEDDNNNNHRPPQPILESALEKNMENYLQEQKERLEEEKAAIQDDRSLVSEEKQKLLEEKEKMLEDLRREQQATELLAAKYKAMESKLLIGGRNIMDHTNEQQKMLELKRQEIAEQKRREREMQQEMMLRDEETMELRGTYTSLQQEVEVKTKKLKKLYAKLQAVKAEIQDQHDEYIRVRQDLEEAQNEQTRELKLKYLIIENFIPPEEKNKIMNRLFLDCEEEQWKFQPLVPAGVSSSQMKKRPTSAVGYKRPISQYARVAMAMGSHPRYRAENIMFLELDVSPPAVFEMEFSHDQEQDPRALHMERLMRLDSFLERPSTSKVRKSRSWCQSPQRPPPSTTHASLASASLRPATVADHE
B2: KIF4A (protein, UniProt O95239 1-1232)
chain: MKEEVKGIPVRVALRCRPLVPKEISEGCQMCLSFVPGEPQVVVGTDKSFTYDFVFDPSTEQEEVFNTAVAPLIKGVFKGYNATVLAYGQTGSGKTYSMGGAYTAEQENEPTVGVIPRVIQLLFKEIDKKSDFEFTLKVSYLEIYNEEILDLLCPSREKAQINIREDPKEGIKIVGLTEKTVLVALDTVSCLEQGNNSRTVASTAMNSQSSRSHAIFTISLEQRKKSDKNSSFRSKLHLVDLAGSERQKKTKAEGDRLKEGININRGLLCLGNVISALGDDKKGGFVPYRDSKLTRLLQDSLGGNSHTLMIACVSPADSNLEETLNTLRYADRARKIKNKPIVNIDPQTAELNHLKQQVQQLQVLLLQAHGGTLPGSITVEPSENLQSLMEKNQSLVEENEKLSRGLSEAAGQTAQMLERIILTEQANEKMNAKLEELRQHAACKLDLQKLVETLEDQELKENVEIICNLQQLITQLSDETVACMAAAIDTAVEQEAQVETSPETSRSSDAFTTQHALRQAQMSKELVELNKALALKEALARKMTQNDSQLQPIQYQYQDNIKELELEVINLQKEKEELVLELQTAKKDANQAKLSERRRKRLQELEGQIADLKKKLNEQSKLLKLKESTERTVSKLNQEIRMMKNQRVQLMRQMKEDAEKFRQWKQKKDKEVIQLKERDRKRQYELLKLERNFQKQSNVLRRKTEEAAAANKRLKDALQKQREVADKRKETQSRGMEGTAARVKNWLGNEIEVMVSTEEAKRHLNDLLEDRKILAQDVAQLKEKKESGENPPPKLRRRTFSLTEVRGQVSESEDSITKQIESLETEMEFRSAQIADLQQKLLDAESEDRPKQRWENIATILEAKCALKYLIGELVSSKIQVSKLESSLKQSKTSCADMQKMLFEERNHFAEIETELQAELVRMEQQHQEKVLYLLSQLQQSQMAEKQLEESVSEKEQQLLSTLKCQDEELEKMREVCEQNQQLLRENEIIKQKLTLLQVASRQKHLPKDTLLSPDSSFEYVPPKPKPSRVKEKFLEQSMDIEDLKYCSEHSVNEHEDGDGDDDEGDDEEWKPTKLVKVSRKNIQGCSCKGWCGNKQCGCRKQKSDCGVDCCCDPTKCRNRQQGKDSLGTVERTQDSEGSFKLEDPTEVTPGLSFFNPVCATPNSKILKEMCDVEQVLSKKTPPAPSPFDLPELKHVATEYQENKAPGKKKKRALASNTSFFSGCSPIEEEAH

Biological target: α-tubulin (human (endogenous in H520))
Experiment: affinity purification with mass spectrometry; α-tubulin immunoprecipitated from H520^VASH2, H520^VASH2-mut and H520^NC cells, LC-MS/MS of the precipitate

| Binder | binding |
| --- | --- |
| B1 | binds |
| B2 | binds |
